Reference: the supplement of paper PMC4683952
Some of the results follow. Cut-off read from the data, not from the text of the source: active = 2 or more and inactive = the rest. Single values are uncertain here, since repeats match poorly.

The molecules below were run on Lgr5 (MarsCy1-Lgr5-EGFP, U2OS) (assay: cell-surface Lgr5 expression (SCi1 fluorescence, background-subtracted) relative to WT DMSO (fold of DMSO control); higher = more Lgr5 at the plasma membrane). Details: U2OS MarsCy1-Lgr5-EGFP stable; treatment time: overnight; library: ActiProbe-5K (TimTec); 25 µM.

cell-surface Lgr5 expression, inactive:
OC1CCc2ccccc2C1 (configuration not stated) 1.2
Nn1nnnc1Nc1ccccc1 0.913
Cc1ccc(/C=C2/SC(=O)NC2=S)o1 1.01
Cc1cc(C(C)(C)C)cc(C)c1CC1=NCCN1 1.37
CCn1ncc(Cn2cc(NS(=O)(=O)c3c(C)nn(C(F)F)c3C)cn2)c1C 1.07
C(/S(=O)(=O)CCCC)(S(=O)(=O)CCCC)=C1\NCCN1 0.878
NC(=O)C(C(N)=O)C1CCS(=O)(=O)C1 (configuration not stated) 1.09
Nc1ccc(/N=N\c2ccccc2)c(N)n1 1.02
S(CC12[C@@]([C@@H](CC2)CC1O)(C)C)(N(C1CCCCC1)C1CCCCC1)(=O)=O (some centres not stated) 0.82
Cn1c(SCc2nc3ccccc3[nH]2)nc2ccccc21 1.12
O=C1Nc2ccc(Cl)cc2/C1=C\c1ccc2c(c1)OCO2 1.41
O=C(O)C1Cc2nc[nH]c2C=N1 (configuration not stated) 1.22
NC(=S)N/N=C/c1cccnc1 1.19
O=C(O)CC12CC3CC(C1)CC(CC(=O)O)(C3)C2 1.27
O=C1NCCN1C(=O)Nc1nccs1 0.758
O=C(c1ccco1)c1coc2ccc(O)cc12 0.921
C=1(C(C(C(C)(C)C)=CC(/C1)=C/c1cc(c([O])c(c1)C(C)(C)C)C(C)(C)C)=O)C(C)(C)C 1.18
O=S(=O)(c1ccccc1)N1CCN(C2CCCC2)CC1 1.09
N#CCC(=O)C12CC3CC(CC(C3)C1)C2 1.23
Cc1ccsc1/C=N\n1c(S)nnc1C1CCCCC1 0.962
CC(=O)c1c(C)nc(-c2cccs2)n1O 1.14
CCCC(C)Sc1nc2nc(C)cc(C)n2n1 (configuration not stated) 1.25
COc1cc(F)c(Br)cc1F 0.937
SC1=NN(c2ccccc2)C2=C(CCC2)S1 0.925
N#Cc1cc(F)ccc1C(F)(F)F 1.04
O=C1COc2ccc(S(=O)(=O)NCC3CC4CCC3C4)cc2N1 (configuration not stated) 0.96
O=C(c1cc([N+](=O)[O-])n[nH]1)N1CCSCC1 0.986
COc1cc2c(c(OC)c1OC)COC2=O 1.58
O=[N+]([O-])c1ccc2oc3c(c2c1)CCCC3 1.06
O=C(O)CCN1C(=O)NC2NC(=O)NC21 (configuration not stated) 1.04
CCC(=O)Nc1nonc1-c1noc(CC)n1 1.22
Cc1[nH]nc(O)c1C1(C(C#N)C#N)C2CC3CC(C2)CC1C3 (configuration not stated) 1.29
Nc1nc(CSc2ncccn2)nc(Nc2ccccc2)n1 1.09
N#CCC(N\N=C1\CCCCC1)=O 1.07
Nc1c(F)c(F)nc(F)c1F 1.23
C=CCN1CNC(CCSC)C1=O (configuration not stated) 0.779
C#CC(C)(C)OC(=O)C1CC(C)=CCC1C(=O)O (configuration not stated) 1.15
C(=C/c1ccccc1)/C=N/N1CCN(c2ccccn2)CC1 0.935
O=S(=O)(c1ccccc1)n1ccc2ccccc21 1.3
CCCN(CCC)C(=O)N1CCNC1=O 1.41
O=C(Nc1nc2c(s1)CCCCC2)C1CCCC1 0.786
CC(=O)CSCc1ccco1 0.875
CNC(=O)C1CC(=O)N(C)C1 (configuration not stated) 1.23
Cc1ccc(-c2nnc3c(n2)c(=O)n(C)c(=O)n3C)o1 1.3
Cc1cc(-c2cc(O)[nH]n2)c(C)s1 0.682
OC(COC1CCCCC1)CN1CCN(CC(O)COC2CCCCC2)CC1 (configuration not stated) 1.19
O=Cc1ccc(Cn2cc([N+](=O)[O-])cn2)o1 1.61
CCC1(CC)OC(c2ccccn2)Nc2ccccc21 (configuration not stated) 1.16
NCCNC(=O)c1nonc1N 1.31
O=C(c1ccc(Br)o1)N1CCOCC1 1.45
O=C1NC(=O)/C(=C\c2ccc(Cl)s2)S1 0.864
C/C(=N\NC(=O)c1cccs1)C(C)(C)C 1.05
C=CCC(=O)n1c(=O)sc2ccccc21 1.08
CN(C)CCn1cnc2cc([N+](=O)[O-])ccc21 1.19
CC(C)(C)c1cc(Sc2c(F)c(F)nc(N3CCCC3)c2F)cc(C(C)(C)C)c1O 1.11
O=C(CC1CCS(=O)(=O)C1)NC1CCCCC1 (configuration not stated) 1.11
CN=C1/C(=C/c2ccc(C(C)(C)C)cc2)COC/C1=C\c1ccc(C(C)(C)C)cc1 1.17

Entries listed so far that have a Cl atom:
cell-surface Lgr5 expression, inactive:
O=C1Nc2ccc(Cl)cc2/C1=C\c1ccc2c(c1)OCO2 1.41
O=C1NC(=O)/C(=C\c2ccc(Cl)s2)S1 0.864

Copied from the listing, 2 compounds:
cell-surface Lgr5 expression, inactive:
O=C1Nc2ccc(Cl)cc2/C1=C\c1ccc2c(c1)OCO2 1.41
O=C(O)C1Cc2nc[nH]c2C=N1 (configuration not stated) 1.22
